This note sets out measurements from publication PMC13323110.

The target in test [1] is N. salsuginis TatB, strep-tagged (Nitratifractor salsuginis). The experiment in a line: cryo-EM structure; 50 μl N. salsuginis TatBC (A280nm = 8.0) mixed with 50 μl CueO peptide (1 mg/ml), 12 h at 4 °C, in GDN; both purified.
Test [2] addresses N. salsuginis TatC (GFP-His removed) (Nitratifractor salsuginis). The description is as above.
Test [3] concerns the target N. salsuginis TatAHisC_(strep) complex (Nitratifractor salsuginis). The experiment in a line: pull-down; N. salsuginis TatABC, TatBC or TatAC held by TatC-strep on Streptactin XT resin and washed, purified CueO or MdoD added for 2 h; 50 mM sodium phosphate pH 8.0, 150 mM NaCl, 1 mM EDTA, 0.02% GDN; immunoblot for the tags; both purified.

These are yes or no findings as the source states them, for the method shown. For part of these data: Binding can be weak; no strength is given. For part of these data: Tags and fused reporters may be left off the sequences shown.

Turning to MQRRDFLKYSVALGVASALPLWSRAVFA (peptide, UniProt P36649 1-28) [E. coli CueO signal peptide (residues 1-28)], the binding entry in test [1] and in test [2] was “binds” each time.

B1: E. coli MdoD, full length, Myc-tagged (protein, UniProt P40120 33-551)
chain: ADSDIADGQTQRFDFSILQSMAHDLAQTAWRGAPRPLPDTLATMTPQAYNSIQYDAEKSLWHNVENRQLDAQFFHMGMGFRRRVRMFSVDPATHLAREIHFRPELFKYNDAGVDTKQLEGQSDLGFAGFRVFKAPELARRDVVSFLGASYFRAVDDTYQYGLSARGLAIDTYTDSKEEFPDFTAFWFDTVKPGATTFTVYALLDSASITGAYKFTIHCEKSQVIMDVENHLYARKDIKQLGIAPMTSMFSCGTNERRMCDTIHPQIHDSDRLSMWRGNGEWICRPLNNPQKLQFNAYTDNNPKGFGLLQLDRDFSHYQDIMGWYNKRPSLWVEPRNKWGKGTIGLMEIPTTGETLDNIVCFWQPEKAVKAGDEFAFQYRLYWSAQPPVHCPLARVMATRTGMGGFSEGWAPGEHYPEKWARRFAVDFVGGDLKAAAPKGIEPVITLSSGEAKQIEILYIEPIDGYRIQFDWYPTSDSTDPVDMRMYLRCQGDAISETWLYQYFPPAPDKRQYVDDRVMS
In the case of B1, in test [3], the binding entry was “no binding”.
